## Library screen at single concentrations

By UniProt entry, the sequences of proteins in these tests, tags left out. Residues count along the entry.
UniProt I6X8D2, whole entry: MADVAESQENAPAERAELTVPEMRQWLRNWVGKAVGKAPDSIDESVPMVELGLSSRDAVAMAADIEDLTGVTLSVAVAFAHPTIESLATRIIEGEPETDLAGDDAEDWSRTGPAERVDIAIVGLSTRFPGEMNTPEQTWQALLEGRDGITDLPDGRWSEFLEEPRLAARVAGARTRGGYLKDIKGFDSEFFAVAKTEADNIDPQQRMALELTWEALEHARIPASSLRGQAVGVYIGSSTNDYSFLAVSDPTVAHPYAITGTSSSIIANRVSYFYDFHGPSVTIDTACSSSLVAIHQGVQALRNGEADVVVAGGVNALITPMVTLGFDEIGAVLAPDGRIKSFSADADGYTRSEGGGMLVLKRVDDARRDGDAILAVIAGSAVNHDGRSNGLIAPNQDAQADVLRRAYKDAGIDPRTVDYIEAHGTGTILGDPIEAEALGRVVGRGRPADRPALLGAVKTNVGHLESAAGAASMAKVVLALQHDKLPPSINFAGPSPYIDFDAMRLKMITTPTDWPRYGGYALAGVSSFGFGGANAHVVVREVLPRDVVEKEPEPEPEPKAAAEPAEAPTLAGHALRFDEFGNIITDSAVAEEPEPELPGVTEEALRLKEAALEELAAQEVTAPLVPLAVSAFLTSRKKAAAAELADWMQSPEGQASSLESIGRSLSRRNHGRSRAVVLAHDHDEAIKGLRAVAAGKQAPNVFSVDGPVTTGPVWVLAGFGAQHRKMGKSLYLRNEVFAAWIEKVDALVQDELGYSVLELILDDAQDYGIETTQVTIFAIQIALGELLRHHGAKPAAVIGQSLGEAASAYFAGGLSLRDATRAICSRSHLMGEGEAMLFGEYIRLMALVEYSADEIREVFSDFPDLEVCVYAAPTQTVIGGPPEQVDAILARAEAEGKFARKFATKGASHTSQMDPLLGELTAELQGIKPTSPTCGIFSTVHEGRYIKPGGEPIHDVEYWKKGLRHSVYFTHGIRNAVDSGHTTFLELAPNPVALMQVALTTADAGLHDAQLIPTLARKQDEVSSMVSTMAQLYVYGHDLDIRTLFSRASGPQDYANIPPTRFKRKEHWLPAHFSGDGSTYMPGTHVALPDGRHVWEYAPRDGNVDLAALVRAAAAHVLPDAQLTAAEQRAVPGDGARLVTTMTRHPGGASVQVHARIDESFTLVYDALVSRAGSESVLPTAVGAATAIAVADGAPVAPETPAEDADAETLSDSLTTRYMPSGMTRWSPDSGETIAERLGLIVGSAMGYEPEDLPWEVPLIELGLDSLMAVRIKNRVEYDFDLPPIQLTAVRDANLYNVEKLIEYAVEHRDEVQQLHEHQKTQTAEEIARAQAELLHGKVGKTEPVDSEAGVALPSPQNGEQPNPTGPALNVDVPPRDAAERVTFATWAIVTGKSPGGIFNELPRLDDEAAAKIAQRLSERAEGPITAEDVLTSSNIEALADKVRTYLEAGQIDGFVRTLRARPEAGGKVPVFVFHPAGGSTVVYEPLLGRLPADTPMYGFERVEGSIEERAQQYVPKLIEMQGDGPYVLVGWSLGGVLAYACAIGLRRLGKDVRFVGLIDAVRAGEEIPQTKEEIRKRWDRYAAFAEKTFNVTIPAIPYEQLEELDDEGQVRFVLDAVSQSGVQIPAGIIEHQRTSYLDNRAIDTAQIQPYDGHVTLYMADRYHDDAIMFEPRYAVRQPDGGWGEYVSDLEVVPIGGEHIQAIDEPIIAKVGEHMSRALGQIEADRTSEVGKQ
UniProt Q4DA54, 1-478: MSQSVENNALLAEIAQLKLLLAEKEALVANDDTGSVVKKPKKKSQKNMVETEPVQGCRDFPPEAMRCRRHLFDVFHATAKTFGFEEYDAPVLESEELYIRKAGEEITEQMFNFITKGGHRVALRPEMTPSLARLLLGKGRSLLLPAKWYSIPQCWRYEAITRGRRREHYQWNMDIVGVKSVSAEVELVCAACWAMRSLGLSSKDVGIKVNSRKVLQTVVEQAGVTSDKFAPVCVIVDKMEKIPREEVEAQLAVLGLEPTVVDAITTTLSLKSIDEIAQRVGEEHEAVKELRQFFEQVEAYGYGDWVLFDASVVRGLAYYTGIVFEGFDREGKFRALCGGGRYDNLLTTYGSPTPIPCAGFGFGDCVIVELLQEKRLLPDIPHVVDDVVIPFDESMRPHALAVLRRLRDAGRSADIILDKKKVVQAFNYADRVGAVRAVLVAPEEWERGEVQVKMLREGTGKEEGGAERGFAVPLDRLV
UniProt A4I591, 1-473: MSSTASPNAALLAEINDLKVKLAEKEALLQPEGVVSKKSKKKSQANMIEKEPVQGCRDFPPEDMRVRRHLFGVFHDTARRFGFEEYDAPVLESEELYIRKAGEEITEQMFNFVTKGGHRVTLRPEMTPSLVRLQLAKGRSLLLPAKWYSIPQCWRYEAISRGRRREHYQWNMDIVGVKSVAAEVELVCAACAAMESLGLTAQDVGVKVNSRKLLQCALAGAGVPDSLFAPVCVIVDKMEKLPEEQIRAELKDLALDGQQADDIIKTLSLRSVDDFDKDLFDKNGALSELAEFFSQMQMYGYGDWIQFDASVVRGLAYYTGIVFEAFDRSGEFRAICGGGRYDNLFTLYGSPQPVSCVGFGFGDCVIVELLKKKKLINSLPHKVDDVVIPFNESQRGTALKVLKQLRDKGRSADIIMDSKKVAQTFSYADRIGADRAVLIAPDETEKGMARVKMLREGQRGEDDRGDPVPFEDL

Source: ChEMBL document CHEMBL3988442, “University of Dundee, Small-Polar-MMV Screening Library” (2021).

Values are the deposited “Percent Effect”, in %.
The controls that fix the scale are not given in the record; negative values are as filed.
Compounds were drawn at random from those tested, without regard to their results.
A dash means the value is not listed here; it may have been measured.

Pks13 thioesterase: 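Enzyme assay of the thioesterase domain of polyketide synthase 13; the read-out is not stated. Target: Polyketide synthase Pks13, Mycobacterium tuberculosis (UniProt I6X8D2). Compounds at 30 µM. The record gives no direction; the compounds picked for IC50 retests had high values, so higher reads as stronger inhibition. Of about 67,000 compounds tested this way, about 300 (0.46%) reached 50% or more in at least one test.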
TcHisRS: 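Histidine-tRNA ligase, Trypanosoma cruzi CL Brener (UniProt Q4DA54). Enzyme assay of histidyl-tRNA synthetase; the read-out is not stated. Compounds at 30 µM. Higher reads as stronger inhibition (inferred: compounds with an IC50 in retests scored well above the rest). Size under these conditions: about 69,000 compounds, about 31 of them at 50% or above in at least one test.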
LiHisRS: 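Enzyme assay of histidyl-tRNA synthetase; the read-out is not stated. Target: Histidine-tRNA ligase, Leishmania infantum (UniProt A4I591). Tested at 30 µM. Direction is inferred from retests: higher values go with stronger inhibition. The assay is labelled LdHisRS but filed under L. infantum. Of about 69,000 compounds tested this way, about 410 (0.6%) reached 50% or more in at least one test.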

SMILES,Pks13 thioesterase,TcHisRS,LiHisRS
Cc1cc(Nc2ccc(F)cn2)cc(C2CCCN2)n1 (configuration not stated),-13.13,1.429,1.342
CS(=O)(=O)NC1CCN(C(=O)NCCc2ccccn2)CC1,-15.71,3.207,0
NC(=O)C(NC1CCN(CC2CCCCC2)CC1)c1ccccc1 (configuration not stated),-12,6.173,7.843
CCN1CCN(c2ncc(-c3cc(C)no3)c(-c3ccco3)n2)CC1,12.96,3.297,-7.246
Cc1ccc(-c2cnnc(N3CCCC3c3nonc3C)n2)o1 (configuration not stated),3.405,9.013,22.95
COc1ccc(N(CCC(N)=O)C(=O)CSc2ccc(Cl)cc2)cc1,0.949,5.155,6.452
CN(C[C@@H]1CCC[C@@H]2CN(c3ncccn3)C[C@@H]21)C1CC1,75.79,9.709,23.3
Cc1ncsc1CN1C[C@@H]2COC[C@]2(CNC(=O)c2ccco2)C1,-4.151,11.22,23
CC(Cn1ccnc1)NC(=O)N1CCCN(Cc2cccs2)CC1 (configuration not stated),-,-0.5714,13.46
CN1CCN(CCCNCc2cc(O)c3cc(F)ccc3n2)CC1,-7.764,9.036,15.38
Clc1cccc(N2CCC(NCc3ncc[nH]3)C2)c1 (configuration not stated),-25.24,9.74,19.35
COc1cc(C#N)ccc1OCC(=O)NS(=O)(=O)c1cccnc1,-21.74,1.327,22.12
CCc1ccccc1OCCN1CC[C@@]2(O)CCNC[C@H]2C1,-4.31,4.372,15.79
NC(=O)C1(Cc2ccccc2-c2ccccc2)CCCN(CC2CC2)C1 (configuration not stated),-33.8,0.5464,5.109
Cn1cc(CN2CCCC(CCCc3ccccn3)(C(N)=O)C2)cn1 (configuration not stated),-5.54,0,1.042
COC1CN(C(=O)NCC(N)=O)CCC(=O)N(C)c2ccccc21 (configuration not stated),13.14,11.24,18.37
CCN1CCc2[nH]cnc2C12CCN(C(=O)CCc1cccs1)CC2,-8.177,10.84,5.128
Brc1csc(CNCc2nnc3n2CCC3)c1,-13.09,14.29,8.333
COc1ccc(Br)c(C(=O)NC(CC(=O)O)c2cccs2)c1 (configuration not stated),-4.674,1.127,9.565
Cc1c(-c2nc3cc(S(=O)(=O)N4CCCC4)ccc3n2C)cnn1C,1.323,-2.439,8.434
CS(=O)(=O)Nc1nn(Cc2ccc(F)cc2)cc1Br,-7.96,3.478,5.172
COc1ccc(OCCN2CCCN(Cc3noc(C)n3)CC2)cc1,-15.86,5.78,16.67
COCC1(C(=O)N[C@H]2CN(c3noc(C)n3)C[C@@H]2C2CC2)CCC1,-4.609,-0.5291,14.67
CNS(=O)(=O)CC(=O)N(Cc1c(F)cccc1Cl)C1CC1,-16.41,5.844,9.677
CCN1CCCC1CN(Cc1ccoc1)CC1CCN(CCOC)CC1 (configuration not stated),0.2971,2.381,0
COCCN1CCCC(C)(c2cc(O)[nH]n2)C1 (configuration not stated),13.54,5.747,47.14
NCCc1cccc(CN2CCN(c3cccc(Cl)c3)C(=O)C2)c1,-11.48,26.4,14.75
CCN1CCC(CNC(=O)Nc2cc(C)on2)C1 (configuration not stated),-13.76,3.955,12.07
CC1CCN(C(=O)[C@@H]2C[C@H]3OCC[C@H]3N(Cc3ccoc3)C2)CC1,-25.88,9.852,20.59
COCCC1(CO)CCCN(Cc2ccc(C(F)(F)F)cc2)C1 (configuration not stated),-27.99,5.435,25
Cc1c(NC(C)C(C)C)cccc1C(=O)NCc1cnn(C)c1 (configuration not stated),-,5.172,14.91
CC(C)C(Sc1nnc(NC2CC2)s1)C(=O)NCc1cccnc1 (configuration not stated),-11.06,7.179,16.33
O=C(C1CC=CC1)N1CCC2(CCN(Cc3ccccn3)C2=O)C1 (configuration not stated),-12.84,-4,-4.425
CCc1csc(CNC(=O)C(CC)n2cccn2)n1 (configuration not stated),-35.69,8.247,5.714
COC(=O)Cn1c(C)cc(=O)c2cc(F)ccc21,-12.71,6.25,5.31
O=C1OCCN1c1cccc(CNCc2cc(F)ccc2F)c1,-,1.053,21.92
CCN(Cc1ccccc1)C1CCN(c2cc(C)nn2C)C1=O (configuration not stated),-11.31,5.844,6.452
COc1ccccc1C(=O)N1CCN(C(=O)CCn2ccnc2)CC1,-44.98,2.186,3.509
CC(C)C(=O)N1CCCC(Cc2cccnc2)C1 (configuration not stated),-4.341,1.429,5.369
O=C(c1ccoc1)N1CC[C@H]2[C@H]1CCN2CC1CC1,-17.95,-0.9709,7.692
CC(C)c1n[nH]c(C2CN(Cc3ncc[nH]3)CCO2)n1 (configuration not stated),-4.52,3.247,14.52
CC(C)CNC(=O)NC(=O)CNc1ccccc1SCC(C)C#N (configuration not stated),-18.07,-1.653,13.46
COc1c(F)cccc1C(=O)NC(C)c1cnn(C)c1 (configuration not stated),-20.81,3.947,9.167
Nc1ccnn1C1CCN(Cc2ccccc2)C1 (configuration not stated),-27.59,12.34,11.29
Cc1ccc(N(C)S(=O)(=O)c2cc(C(=O)O)cs2)c(C)c1,-12.5,0.8596,3.509
CCO[C@@H]1CC[C@H]2[C@H]1OCCN2Cc1ccc(F)cc1,-25.51,7.619,15.28
Cc1nnc(N2CCOC(C)(C(=O)NC3CCCC3)C2)c2ccccc12 (configuration not stated),5.412,4.981,-21.43
CC(NCc1ccc(OCc2nccn2C)cc1)c1cccnc1 (configuration not stated),-31.65,12.71,26.51
CC(=O)N1CCn2c(nnc2C2CCCCN2Cc2ccccc2Cl)C1 (configuration not stated),-10.8,3.802,10.34
Cc1ccncc1C(=O)N1CC[C@@]2(O)CCN(C3CCCCC3)C[C@H]2C1,-7.782,0,14.47
O=C(CO)N1CCC2(CC1)CC(=O)N(Cc1cc(F)cc(F)c1)C2,-12.68,6.533,-13.48
Cc1ccc(CN(C)C(=O)CN2CCCCC2Cn2cncn2)o1 (configuration not stated),-18.83,7.882,12.33
CN1CCC(N(Cc2ccccc2F)C(=O)NCc2ccncc2)CC1,-14.22,3.093,4.839
CCN1C(=O)C2(CCOCC2)c2cc(NC(=O)COC)ccc21,-29.7,9.901,26.03
COC(=O)c1ccc(N2CCN(C(=O)CCCc3cn[nH]c3)CC2)cc1,11.63,3.571,10.85
CN1CCN(Cc2cccc(C#N)c2)Cc2cccnc21,-16.23,10.92,21.1
CC(=O)N1CCC2(CC1)CCN(C(=O)c1cccc(C(F)(F)F)c1)C2,-15.85,4.132,10.91
Cn1c(=O)ccn(CC(=O)NCC2Cc3ccccc3O2)c1=O (configuration not stated),-1.389,-1.053,24.66
O=C1N(CC2CC2)CCC12CCN(CC1CC1)CC2,-45.55,3.226,8.772
CC(C)(C)OC(=O)NC1(c2noc(-c3ccco3)n2)CCC1,3.669,5.882,10.53
CS(=O)(=O)Nc1ccc2c(c1)NC(=O)CC2c1cnn2cccnc12 (configuration not stated),2.771,-7.328,16.46
CN1CC(=O)N(c2cccc(F)c2)CC12CCN(Cc1ccsc1)C2 (configuration not stated),-41.34,5.376,25.66
COCCN1CCN(CC(=O)N(C)Cc2ccc(C)o2)CC1C (configuration not stated),2.076,5.806,21.21
c1cc(-c2ccn(CCN3CCCC3)n2)cc(-c2nccs2)c1,-34.5,12.79,16.39
CC(C)(C)C(=O)N1CCN(CCOc2cccc(C#N)c2)CC1,-5.087,9.244,12.28
Cc1nc(N2CCC(C(O)c3nccn3C)CC2)c2nc(C)oc2n1 (configuration not stated),-3.694,9.827,0
O=C(Cn1cc(Cl)cn1)N1CCCC(c2cc3ccccc3cn2)C1 (configuration not stated),3.84,2.281,6.207
COCC(=O)N1CCN(CC2CC2)c2ncccc2C1,-41.97,2.041,-5
CS(=O)(=O)NCC1CCCN(C(=O)c2ccc(F)c(F)c2)C1 (configuration not stated),-12.78,0.8721,6.14
O=C1CO[C@@H]2CN(Cc3ccncc3)C[C@H]2N1Cc1ccncc1,3.42,7.438,10.91
CN(C)C(=O)C1CN(Cc2cscn2)CCN(S(C)(=O)=O)C1 (configuration not stated),-28.17,1.622,22.22
O=C(c1cnn2ccccc12)N1CCCC(OCc2ccccn2)C1 (configuration not stated),-9.111,6.957,10
CC(C)c1nccn1CCC(=O)N1CCCC1c1cccn1C (configuration not stated),-18.25,4.762,13.33

Repeated from the top, 8 entries:

SMILES,Pks13 thioesterase,TcHisRS,LiHisRS
Cc1cc(Nc2ccc(F)cn2)cc(C2CCCN2)n1 (configuration not stated),-13.13,1.429,1.342
CS(=O)(=O)NC1CCN(C(=O)NCCc2ccccn2)CC1,-15.71,3.207,0
NC(=O)C(NC1CCN(CC2CCCCC2)CC1)c1ccccc1 (configuration not stated),-12,6.173,7.843
CCN1CCN(c2ncc(-c3cc(C)no3)c(-c3ccco3)n2)CC1,12.96,3.297,-7.246
Cc1ccc(-c2cnnc(N3CCCC3c3nonc3C)n2)o1 (configuration not stated),3.405,9.013,22.95
COc1ccc(N(CCC(N)=O)C(=O)CSc2ccc(Cl)cc2)cc1,0.949,5.155,6.452
CN(C[C@@H]1CCC[C@@H]2CN(c3ncccn3)C[C@@H]21)C1CC1,75.79,9.709,23.3
Cc1ncsc1CN1C[C@@H]2COC[C@]2(CNC(=O)c2ccco2)C1,-4.151,11.22,23